This passage reports binding results from paper PMC7999522.

Sequences of proteins named here, by UniProt entry; tags and fusion partners are left off. Residues count along the entry.
UniProt Q14152: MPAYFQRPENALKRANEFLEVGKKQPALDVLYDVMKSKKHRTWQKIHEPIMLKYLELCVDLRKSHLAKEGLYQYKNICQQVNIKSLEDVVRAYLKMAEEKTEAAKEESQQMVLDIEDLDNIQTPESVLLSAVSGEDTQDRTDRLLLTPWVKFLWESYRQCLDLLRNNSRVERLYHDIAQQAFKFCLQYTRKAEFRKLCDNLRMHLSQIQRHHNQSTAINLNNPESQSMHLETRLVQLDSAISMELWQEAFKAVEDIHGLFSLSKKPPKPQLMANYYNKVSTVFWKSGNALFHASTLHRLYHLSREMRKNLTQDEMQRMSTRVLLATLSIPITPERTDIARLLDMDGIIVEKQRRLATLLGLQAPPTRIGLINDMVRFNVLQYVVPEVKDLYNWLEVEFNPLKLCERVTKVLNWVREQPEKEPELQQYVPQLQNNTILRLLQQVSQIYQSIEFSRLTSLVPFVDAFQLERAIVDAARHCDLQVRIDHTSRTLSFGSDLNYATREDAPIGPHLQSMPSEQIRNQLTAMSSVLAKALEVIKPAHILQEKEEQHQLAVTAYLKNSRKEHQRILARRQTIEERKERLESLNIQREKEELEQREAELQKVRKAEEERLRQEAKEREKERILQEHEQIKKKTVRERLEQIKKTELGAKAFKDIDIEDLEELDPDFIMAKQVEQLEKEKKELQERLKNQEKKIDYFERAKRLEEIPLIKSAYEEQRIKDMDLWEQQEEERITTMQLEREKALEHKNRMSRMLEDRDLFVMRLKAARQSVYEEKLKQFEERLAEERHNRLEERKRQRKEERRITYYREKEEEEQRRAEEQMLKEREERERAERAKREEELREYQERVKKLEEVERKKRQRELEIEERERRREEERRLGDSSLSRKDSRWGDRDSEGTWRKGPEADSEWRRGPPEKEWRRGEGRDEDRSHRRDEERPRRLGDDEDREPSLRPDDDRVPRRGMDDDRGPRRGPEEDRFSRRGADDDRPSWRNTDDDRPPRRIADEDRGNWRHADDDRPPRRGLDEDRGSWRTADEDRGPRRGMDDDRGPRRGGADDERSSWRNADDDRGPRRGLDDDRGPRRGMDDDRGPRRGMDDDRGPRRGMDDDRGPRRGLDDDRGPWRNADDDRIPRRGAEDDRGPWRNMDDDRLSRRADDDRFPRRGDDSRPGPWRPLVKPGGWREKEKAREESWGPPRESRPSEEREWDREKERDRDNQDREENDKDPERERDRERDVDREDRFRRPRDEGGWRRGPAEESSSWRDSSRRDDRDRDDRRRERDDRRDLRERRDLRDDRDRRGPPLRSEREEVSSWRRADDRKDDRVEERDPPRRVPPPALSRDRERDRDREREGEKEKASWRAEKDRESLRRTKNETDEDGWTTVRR
UniProt P04792: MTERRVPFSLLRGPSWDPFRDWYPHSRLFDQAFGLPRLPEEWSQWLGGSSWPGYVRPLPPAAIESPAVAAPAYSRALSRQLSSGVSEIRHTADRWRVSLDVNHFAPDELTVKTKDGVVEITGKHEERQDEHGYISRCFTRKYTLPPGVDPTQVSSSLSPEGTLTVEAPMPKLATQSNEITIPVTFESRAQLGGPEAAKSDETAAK
UniProt O00303: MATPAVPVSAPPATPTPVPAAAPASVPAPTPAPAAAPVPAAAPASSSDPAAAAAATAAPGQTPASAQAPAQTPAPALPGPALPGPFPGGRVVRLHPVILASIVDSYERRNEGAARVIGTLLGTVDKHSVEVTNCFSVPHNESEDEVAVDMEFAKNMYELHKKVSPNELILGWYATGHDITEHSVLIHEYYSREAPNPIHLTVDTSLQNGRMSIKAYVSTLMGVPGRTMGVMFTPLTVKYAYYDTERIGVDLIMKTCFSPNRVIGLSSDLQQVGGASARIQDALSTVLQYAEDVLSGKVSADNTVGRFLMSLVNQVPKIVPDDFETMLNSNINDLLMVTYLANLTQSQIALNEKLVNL
UniProt P67809: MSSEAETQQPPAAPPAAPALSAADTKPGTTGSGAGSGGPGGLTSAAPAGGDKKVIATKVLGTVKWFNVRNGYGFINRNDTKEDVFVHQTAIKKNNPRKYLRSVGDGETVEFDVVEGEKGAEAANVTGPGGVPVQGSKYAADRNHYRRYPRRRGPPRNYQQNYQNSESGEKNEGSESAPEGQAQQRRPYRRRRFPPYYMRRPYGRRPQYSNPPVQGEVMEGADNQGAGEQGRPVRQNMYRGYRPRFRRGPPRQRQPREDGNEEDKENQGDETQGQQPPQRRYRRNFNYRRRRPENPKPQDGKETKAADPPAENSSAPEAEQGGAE
UniProt Q86YZ3: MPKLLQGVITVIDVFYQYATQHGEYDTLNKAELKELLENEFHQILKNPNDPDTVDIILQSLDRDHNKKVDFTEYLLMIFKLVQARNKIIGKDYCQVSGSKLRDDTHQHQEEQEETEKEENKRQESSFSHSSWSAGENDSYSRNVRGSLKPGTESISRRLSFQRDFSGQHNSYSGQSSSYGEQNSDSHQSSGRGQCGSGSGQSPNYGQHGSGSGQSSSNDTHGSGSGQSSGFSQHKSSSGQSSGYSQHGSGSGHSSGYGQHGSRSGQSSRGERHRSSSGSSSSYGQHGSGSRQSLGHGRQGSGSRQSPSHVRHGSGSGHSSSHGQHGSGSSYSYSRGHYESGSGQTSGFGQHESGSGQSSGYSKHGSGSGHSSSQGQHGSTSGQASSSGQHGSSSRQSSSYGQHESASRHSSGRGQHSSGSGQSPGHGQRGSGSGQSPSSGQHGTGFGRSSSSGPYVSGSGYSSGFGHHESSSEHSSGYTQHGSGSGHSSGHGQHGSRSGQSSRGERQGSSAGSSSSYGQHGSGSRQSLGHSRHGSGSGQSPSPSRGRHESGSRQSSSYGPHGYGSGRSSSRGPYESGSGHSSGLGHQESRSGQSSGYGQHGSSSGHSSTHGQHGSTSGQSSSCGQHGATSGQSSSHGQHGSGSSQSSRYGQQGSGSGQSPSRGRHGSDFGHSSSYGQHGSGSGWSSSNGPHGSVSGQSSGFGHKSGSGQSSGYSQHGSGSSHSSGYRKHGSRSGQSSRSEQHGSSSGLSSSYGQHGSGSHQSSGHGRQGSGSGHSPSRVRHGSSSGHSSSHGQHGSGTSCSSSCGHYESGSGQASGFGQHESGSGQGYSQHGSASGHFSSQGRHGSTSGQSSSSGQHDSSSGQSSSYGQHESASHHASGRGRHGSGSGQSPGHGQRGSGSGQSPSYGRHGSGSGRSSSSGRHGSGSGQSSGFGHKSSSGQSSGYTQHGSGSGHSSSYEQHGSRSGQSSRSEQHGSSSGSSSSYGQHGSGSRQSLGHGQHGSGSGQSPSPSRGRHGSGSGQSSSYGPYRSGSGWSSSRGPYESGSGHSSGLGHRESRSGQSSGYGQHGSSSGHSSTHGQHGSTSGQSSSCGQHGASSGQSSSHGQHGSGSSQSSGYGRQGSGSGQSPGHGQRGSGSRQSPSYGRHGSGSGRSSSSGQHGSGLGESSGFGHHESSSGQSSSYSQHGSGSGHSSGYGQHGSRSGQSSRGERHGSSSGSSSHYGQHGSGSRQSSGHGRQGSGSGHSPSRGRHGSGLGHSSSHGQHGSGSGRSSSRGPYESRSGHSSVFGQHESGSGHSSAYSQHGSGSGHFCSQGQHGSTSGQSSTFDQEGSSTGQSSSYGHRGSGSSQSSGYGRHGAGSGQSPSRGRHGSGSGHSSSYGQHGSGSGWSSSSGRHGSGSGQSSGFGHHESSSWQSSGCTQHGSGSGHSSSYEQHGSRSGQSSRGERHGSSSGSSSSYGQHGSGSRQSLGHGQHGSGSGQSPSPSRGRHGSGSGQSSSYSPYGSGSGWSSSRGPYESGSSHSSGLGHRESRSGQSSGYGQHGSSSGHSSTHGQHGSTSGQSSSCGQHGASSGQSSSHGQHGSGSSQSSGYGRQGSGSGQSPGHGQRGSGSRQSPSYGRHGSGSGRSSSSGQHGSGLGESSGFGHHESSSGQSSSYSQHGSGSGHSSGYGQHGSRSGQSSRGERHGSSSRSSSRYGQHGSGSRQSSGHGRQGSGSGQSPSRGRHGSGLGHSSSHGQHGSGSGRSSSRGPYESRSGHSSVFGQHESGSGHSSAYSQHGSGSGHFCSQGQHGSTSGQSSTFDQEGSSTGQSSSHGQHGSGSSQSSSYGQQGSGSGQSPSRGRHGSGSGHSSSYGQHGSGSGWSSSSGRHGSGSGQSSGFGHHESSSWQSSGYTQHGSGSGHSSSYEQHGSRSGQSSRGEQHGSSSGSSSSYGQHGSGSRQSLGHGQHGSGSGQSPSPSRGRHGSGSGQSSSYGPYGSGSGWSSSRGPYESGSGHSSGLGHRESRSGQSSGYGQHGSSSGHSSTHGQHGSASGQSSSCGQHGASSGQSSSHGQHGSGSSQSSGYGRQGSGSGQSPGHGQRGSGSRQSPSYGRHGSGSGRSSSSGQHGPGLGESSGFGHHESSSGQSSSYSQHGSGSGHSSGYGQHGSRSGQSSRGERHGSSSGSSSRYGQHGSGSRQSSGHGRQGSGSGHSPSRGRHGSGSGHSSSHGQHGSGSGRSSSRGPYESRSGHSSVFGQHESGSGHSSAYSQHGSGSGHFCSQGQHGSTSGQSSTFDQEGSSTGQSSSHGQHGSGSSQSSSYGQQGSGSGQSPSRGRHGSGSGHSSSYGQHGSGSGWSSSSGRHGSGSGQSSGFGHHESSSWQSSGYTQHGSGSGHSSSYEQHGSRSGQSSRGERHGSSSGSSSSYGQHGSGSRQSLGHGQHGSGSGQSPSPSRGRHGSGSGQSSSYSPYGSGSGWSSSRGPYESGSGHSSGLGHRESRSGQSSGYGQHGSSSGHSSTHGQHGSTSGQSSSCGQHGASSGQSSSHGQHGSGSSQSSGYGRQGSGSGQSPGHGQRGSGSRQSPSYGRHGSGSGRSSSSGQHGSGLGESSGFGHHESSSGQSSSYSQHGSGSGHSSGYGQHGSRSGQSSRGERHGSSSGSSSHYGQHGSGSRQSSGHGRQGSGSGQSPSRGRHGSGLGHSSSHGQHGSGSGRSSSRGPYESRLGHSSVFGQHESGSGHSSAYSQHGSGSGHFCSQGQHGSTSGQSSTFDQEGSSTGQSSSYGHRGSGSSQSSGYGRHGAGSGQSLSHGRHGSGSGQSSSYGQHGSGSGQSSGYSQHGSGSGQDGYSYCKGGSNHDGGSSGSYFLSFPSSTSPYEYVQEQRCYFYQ
UniProt P63104: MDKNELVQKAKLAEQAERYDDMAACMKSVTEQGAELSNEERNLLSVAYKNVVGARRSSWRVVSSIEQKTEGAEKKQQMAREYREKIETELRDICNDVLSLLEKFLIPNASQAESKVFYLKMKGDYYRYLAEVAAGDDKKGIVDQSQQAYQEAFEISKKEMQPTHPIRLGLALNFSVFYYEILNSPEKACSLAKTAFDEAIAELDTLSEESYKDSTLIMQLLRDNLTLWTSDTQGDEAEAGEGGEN
UniProt P10809, residues 27-573: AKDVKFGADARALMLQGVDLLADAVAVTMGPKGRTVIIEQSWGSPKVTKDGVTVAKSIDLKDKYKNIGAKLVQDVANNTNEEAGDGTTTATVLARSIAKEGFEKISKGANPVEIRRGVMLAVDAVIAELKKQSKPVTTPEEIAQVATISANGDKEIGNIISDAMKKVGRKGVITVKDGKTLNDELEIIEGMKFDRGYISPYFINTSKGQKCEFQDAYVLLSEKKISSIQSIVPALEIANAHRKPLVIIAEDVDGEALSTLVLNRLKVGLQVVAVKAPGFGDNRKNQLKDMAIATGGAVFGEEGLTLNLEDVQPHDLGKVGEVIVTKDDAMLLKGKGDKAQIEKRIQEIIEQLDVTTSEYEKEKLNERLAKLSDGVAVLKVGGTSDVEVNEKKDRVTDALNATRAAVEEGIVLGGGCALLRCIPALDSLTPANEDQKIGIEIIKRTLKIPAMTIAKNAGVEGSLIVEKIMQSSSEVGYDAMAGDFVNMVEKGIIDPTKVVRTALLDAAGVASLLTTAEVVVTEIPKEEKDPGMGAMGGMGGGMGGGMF
UniProt P06748: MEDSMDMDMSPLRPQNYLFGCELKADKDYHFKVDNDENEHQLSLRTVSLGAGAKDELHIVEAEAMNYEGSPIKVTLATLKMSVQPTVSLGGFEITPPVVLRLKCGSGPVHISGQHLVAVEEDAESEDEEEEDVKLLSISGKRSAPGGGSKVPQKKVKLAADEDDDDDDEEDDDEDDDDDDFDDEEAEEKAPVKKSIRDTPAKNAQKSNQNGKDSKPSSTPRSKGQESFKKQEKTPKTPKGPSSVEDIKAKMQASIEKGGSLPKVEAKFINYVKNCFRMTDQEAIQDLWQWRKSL
UniProt P07737: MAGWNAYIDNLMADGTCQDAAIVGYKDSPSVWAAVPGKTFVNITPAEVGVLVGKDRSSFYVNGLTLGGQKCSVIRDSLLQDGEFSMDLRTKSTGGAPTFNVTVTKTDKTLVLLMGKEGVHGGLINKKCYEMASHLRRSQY

Results are given in words; binding and its absence hold for the method and conditions named. Binding seen in cells or lysates may run through a third protein. A yes stands for co-enrichment or nearness to the bait. Other partners may have been found. For part of these data: No binding means not detected with the bait.

Test [1] deals with myc-BirA*-eIF3A fusion protein (UniProt Q14152). As to the kind of experiment: proximity labelling; BioID: myc-BirA*-eIF3A against the myc-BirA* control, transiently transfected HEK-293T and HCT-116 cells, 50 µM biotin for 6 h or 24 h; RIPA lysate, streptavidin magnetic beads, washes with 8 M urea, 1% Triton, 0.5 M NaCl, 20% acetonitrile; on-bead trypsin digestion, LC-MS/MS, label-free ratio BirA*-eIF3A to BirA* above 1.5; some hits also kept in cells pre-treated with 1 µM thapsigargin.

Test [2] has the same target. Put plainly: proximity labelling; BioID as a1, but cells treated with 1 µM thapsigargin (ER stress) for 3 h before biotin for 6 h or 24 h.
The target is the same in test [3]. Put plainly: condition: only cells treated with 1 µM thapsigargin; proximity labelling; BioID as a1, but cells treated with 1 µM thapsigargin (ER stress) for 3 h before biotin for 6 h or 24 h.

For the substance HSPB1 (from UniProt P04792 1-205), the binding result in test [1] is on record as “binds”.
Turning to DSG1 (from UniProt Q02413 50-1049), the binding entry in test [2] is “binds”.
Take eIF3F (from UniProt O00303 1-357): the binding result in test [1] is listed as “binds”.
Regarding YB-1 (from UniProt P67809 1-324), the binding result in test [1] is “binds”.
Turning to DDX21 (from UniProt Q9NR30 1-783), the binding entry in test [1] is on record as “binds”.
Still for that read-out and setting: to HORN (from UniProt Q86YZ3 1-2850) belongs “binds”; to 14-3-3Z (from UniProt P63104 1-245), “binds”; to HSP-7C (from UniProt P11142 1-646), “binds”.
Regarding “CH60 (HSPD1) (from UniProt P10809 27-573)”, the binding entry in test [3] is reported as “no binding”; in test [1], “binds”.
For “nucleophosmin (NPM1) (from UniProt P06748 1-294)”, the binding entry in test [1] is on record as “binds”.
Still for that read-out and setting: the same measure for PROF1 (from UniProt P07737 1-140): “binds”.
